Some of the results follow.

Amino acid sequences for entries named in this document (tags omitted). A change or cut given only in a name is not applied to a line headed by its entry.
UniProt Q9Y4E8: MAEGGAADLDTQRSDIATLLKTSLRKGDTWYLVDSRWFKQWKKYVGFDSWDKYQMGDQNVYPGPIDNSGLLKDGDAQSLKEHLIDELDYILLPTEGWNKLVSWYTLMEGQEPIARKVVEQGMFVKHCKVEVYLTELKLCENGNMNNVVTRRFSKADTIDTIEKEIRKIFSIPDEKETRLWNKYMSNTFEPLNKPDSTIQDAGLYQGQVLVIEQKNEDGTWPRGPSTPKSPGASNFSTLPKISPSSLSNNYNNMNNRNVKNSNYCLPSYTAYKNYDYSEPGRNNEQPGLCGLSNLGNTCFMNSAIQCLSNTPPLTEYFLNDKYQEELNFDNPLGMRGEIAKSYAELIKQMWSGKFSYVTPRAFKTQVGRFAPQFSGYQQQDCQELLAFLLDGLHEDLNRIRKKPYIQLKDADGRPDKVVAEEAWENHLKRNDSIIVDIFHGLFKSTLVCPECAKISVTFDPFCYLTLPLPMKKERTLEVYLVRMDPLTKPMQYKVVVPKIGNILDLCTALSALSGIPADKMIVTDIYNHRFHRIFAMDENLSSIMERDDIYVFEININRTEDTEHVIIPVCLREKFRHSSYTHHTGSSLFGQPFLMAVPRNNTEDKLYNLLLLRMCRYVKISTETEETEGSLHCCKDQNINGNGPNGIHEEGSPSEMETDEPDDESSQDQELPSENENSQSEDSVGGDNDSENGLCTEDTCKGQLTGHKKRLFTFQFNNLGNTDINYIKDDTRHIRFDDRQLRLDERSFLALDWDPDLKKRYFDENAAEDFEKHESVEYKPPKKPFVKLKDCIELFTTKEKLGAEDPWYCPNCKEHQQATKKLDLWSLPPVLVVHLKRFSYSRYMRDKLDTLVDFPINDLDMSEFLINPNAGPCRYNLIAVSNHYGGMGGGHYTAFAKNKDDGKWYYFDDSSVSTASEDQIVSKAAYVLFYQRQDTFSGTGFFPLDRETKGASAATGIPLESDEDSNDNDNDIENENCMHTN
UniProt Q9Y5K5, whole entry, looked up: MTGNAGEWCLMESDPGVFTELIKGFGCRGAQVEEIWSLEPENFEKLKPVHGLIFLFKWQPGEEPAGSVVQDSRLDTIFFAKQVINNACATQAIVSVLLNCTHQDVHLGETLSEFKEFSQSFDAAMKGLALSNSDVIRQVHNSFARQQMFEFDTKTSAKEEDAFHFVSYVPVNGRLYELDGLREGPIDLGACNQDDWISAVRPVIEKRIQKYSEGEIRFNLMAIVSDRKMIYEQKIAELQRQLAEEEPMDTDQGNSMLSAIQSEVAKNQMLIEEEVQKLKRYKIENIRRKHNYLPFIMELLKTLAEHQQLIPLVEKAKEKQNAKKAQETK
UniProt Q9UPU5: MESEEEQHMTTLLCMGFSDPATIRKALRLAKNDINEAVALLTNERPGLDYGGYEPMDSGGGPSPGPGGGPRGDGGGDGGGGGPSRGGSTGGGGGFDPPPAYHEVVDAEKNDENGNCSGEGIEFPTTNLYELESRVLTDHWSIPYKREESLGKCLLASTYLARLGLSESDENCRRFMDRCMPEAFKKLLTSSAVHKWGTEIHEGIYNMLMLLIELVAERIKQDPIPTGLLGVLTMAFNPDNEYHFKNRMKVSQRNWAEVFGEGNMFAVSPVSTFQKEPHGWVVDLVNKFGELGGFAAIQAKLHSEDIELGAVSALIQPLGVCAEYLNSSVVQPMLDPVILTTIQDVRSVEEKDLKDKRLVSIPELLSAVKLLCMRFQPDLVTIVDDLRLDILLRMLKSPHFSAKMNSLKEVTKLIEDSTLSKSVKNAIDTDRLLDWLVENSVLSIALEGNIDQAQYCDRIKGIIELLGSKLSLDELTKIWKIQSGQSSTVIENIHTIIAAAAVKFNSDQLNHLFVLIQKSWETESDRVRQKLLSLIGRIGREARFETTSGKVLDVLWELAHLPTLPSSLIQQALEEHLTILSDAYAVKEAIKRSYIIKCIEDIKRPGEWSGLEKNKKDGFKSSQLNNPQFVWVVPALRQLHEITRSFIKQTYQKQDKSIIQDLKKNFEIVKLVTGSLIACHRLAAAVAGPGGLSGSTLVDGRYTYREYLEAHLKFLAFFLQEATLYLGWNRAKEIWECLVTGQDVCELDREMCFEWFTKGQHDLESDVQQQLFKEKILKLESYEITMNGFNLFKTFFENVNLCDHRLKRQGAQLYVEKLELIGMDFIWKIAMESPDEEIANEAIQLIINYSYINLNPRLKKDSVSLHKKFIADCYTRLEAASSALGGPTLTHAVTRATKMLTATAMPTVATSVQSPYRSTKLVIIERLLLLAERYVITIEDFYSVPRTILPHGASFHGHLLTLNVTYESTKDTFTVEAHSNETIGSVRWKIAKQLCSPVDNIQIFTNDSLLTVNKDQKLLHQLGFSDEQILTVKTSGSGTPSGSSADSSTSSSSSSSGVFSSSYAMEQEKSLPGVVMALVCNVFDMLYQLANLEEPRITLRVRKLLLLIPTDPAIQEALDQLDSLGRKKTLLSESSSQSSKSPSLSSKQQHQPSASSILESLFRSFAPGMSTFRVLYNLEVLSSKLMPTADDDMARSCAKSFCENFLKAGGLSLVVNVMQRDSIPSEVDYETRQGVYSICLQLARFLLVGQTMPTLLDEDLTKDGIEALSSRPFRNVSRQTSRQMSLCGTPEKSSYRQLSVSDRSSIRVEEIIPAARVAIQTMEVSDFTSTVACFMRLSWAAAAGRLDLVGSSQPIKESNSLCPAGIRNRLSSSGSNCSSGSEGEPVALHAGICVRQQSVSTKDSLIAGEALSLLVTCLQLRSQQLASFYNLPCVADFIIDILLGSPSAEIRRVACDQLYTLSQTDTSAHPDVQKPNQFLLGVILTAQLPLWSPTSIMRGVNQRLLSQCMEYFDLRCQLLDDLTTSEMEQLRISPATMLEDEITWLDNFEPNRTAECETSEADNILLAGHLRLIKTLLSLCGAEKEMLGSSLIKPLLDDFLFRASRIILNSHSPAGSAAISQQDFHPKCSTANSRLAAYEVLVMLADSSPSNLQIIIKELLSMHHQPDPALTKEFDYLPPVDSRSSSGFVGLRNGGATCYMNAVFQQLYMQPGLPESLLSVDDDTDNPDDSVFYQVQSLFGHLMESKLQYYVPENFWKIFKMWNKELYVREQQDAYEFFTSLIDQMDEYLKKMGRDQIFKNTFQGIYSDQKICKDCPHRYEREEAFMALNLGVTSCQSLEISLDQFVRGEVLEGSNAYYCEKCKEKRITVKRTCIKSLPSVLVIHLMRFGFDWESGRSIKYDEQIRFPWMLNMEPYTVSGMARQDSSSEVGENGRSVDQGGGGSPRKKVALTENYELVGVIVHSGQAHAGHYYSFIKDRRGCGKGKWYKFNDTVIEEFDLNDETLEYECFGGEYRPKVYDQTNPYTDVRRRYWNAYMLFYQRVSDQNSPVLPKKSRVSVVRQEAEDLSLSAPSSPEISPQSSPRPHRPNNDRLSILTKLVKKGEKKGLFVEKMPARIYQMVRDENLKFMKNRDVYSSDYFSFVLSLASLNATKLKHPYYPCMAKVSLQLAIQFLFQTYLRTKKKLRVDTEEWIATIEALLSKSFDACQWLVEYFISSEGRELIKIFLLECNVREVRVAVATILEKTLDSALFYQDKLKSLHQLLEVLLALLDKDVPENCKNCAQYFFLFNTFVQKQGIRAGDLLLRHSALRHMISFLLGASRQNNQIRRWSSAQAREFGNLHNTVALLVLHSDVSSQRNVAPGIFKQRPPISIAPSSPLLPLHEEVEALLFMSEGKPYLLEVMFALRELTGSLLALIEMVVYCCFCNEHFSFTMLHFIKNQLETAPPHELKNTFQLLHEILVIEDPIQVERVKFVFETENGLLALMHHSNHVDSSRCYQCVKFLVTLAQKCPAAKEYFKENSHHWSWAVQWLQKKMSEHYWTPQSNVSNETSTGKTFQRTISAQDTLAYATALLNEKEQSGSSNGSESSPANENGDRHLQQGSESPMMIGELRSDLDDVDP
UniProt Q9HAU5: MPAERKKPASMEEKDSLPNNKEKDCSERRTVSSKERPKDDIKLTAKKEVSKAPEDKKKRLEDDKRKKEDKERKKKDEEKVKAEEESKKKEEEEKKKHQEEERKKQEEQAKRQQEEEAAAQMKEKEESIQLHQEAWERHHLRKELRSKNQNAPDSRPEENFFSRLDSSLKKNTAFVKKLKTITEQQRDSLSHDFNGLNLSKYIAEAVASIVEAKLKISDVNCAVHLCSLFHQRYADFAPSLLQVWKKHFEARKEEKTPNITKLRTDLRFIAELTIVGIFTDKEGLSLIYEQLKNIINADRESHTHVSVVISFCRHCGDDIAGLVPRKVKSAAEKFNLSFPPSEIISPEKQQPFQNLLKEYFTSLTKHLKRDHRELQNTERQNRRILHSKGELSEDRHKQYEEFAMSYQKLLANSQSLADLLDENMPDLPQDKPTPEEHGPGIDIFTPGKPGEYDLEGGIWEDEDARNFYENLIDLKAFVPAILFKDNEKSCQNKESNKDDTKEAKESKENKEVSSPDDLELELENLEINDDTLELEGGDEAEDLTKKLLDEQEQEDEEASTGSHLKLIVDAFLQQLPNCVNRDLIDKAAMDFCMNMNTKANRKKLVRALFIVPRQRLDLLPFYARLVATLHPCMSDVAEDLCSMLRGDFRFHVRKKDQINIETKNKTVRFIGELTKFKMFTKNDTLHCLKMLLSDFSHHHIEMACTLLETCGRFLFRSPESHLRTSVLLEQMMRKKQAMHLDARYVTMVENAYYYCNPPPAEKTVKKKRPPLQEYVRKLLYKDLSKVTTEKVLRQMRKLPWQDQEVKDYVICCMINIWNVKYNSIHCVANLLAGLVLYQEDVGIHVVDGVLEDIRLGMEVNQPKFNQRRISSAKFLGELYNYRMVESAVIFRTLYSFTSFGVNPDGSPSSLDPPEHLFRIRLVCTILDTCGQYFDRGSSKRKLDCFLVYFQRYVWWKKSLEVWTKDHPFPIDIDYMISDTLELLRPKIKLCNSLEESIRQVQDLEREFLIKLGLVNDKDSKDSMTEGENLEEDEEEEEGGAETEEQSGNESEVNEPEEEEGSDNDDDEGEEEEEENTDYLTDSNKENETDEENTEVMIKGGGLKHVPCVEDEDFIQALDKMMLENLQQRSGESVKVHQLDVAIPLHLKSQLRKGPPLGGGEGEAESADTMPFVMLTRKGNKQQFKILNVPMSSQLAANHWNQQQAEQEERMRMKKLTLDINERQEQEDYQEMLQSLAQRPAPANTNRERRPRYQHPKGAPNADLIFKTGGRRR
UniProt Q9BZX2: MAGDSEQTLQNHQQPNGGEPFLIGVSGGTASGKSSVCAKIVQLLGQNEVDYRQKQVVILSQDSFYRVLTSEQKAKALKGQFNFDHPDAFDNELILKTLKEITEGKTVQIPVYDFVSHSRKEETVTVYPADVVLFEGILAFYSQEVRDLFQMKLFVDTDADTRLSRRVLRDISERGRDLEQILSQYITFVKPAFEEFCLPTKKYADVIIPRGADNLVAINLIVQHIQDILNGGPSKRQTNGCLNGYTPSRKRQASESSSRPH
UniProt Q92900: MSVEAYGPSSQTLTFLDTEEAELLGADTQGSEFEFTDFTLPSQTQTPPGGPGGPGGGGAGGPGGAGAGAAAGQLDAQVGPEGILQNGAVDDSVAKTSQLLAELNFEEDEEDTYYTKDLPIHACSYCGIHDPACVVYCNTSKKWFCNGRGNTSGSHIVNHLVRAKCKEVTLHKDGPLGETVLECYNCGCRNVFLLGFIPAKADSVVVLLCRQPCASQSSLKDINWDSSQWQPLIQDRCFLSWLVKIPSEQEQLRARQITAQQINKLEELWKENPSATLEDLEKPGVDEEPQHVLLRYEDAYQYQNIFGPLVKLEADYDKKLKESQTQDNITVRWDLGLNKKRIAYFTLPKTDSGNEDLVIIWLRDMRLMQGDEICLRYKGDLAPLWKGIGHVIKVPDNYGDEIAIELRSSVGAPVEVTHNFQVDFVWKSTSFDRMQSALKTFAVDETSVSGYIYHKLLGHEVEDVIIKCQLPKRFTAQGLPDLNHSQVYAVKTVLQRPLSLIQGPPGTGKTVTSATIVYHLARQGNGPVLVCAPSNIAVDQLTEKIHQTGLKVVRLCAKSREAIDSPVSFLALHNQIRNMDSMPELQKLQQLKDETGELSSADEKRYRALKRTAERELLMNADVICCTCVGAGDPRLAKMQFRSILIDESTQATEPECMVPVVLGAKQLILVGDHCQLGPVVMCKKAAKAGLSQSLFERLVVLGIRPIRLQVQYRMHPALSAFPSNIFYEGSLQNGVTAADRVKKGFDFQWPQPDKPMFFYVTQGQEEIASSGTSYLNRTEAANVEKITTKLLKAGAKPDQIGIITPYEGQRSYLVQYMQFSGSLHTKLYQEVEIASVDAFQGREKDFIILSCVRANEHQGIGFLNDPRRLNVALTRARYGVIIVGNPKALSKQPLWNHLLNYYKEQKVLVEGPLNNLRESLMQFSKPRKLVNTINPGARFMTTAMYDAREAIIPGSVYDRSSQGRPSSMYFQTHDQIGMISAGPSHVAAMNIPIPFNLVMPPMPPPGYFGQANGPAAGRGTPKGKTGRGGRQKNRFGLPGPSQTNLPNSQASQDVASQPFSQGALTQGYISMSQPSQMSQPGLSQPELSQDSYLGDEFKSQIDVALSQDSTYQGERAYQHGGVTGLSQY

Compound in the experiment: CC1Cc2ccccc2N1C(=O)C1CCCN(C1)C(=O)CCl (mixture of isomers) [TRIM25 ligand 11 (diastereomer mixture)]
In words: probe-labelled cysteine peptide fold change vs DMSO (competition) (log2 fold change); higher = less target engagement (more negative = stronger competition). Conditions: THP-1, incubation time: 4 h.
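Also: competitive chemoproteomic profiling in live THP-1 cells with an iodoacetamide desthiobiotin (IA-DTB) probe, comparing probe-labelled peptide intensities in compound-treated cells against DMSO-treated controls.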

Take “USP15_Q9Y4E8_634_ISTETEETEGSLHCCK (UniProt Q9Y4E8)”: the “probe-labelled cysteine peptide fold change” value by setting is: (10 µM) -0.0446; (50 µM) -0.0793.

Regarding “UCHL5_Q9Y5K5_191_EGPIDLGACNQDDWISAVRPVIEK (UniProt Q9Y5K5)”, the “probe-labelled cysteine peptide fold change” value runs as follows: (10 µM) 0.0268; (50 µM) 0.0477.

As for “UIMC1_Q96RL1_348_NECISEDMGDEDKEER (UniProt Q96RL1)”, the “probe-labelled cysteine peptide fold change” value (10 µM) amounted to 0.0523 and the “probe-labelled cysteine peptide fold change” value (50 µM) was -0.224.

As to “URB1_O60287_316_ELVHNFLMDLCCSLK (UniProt O60287)”, the “probe-labelled cysteine peptide fold change” value is, setting by setting: (10 µM) 0.00673; (50 µM) -0.0724.

On to “UBTF_P17480_33_GQDRWSQEDMLTLLECMK (UniProt P17480)”, for which the “probe-labelled cysteine peptide fold change” value was -0.328 (10 µM) and -0.395 (50 µM).

As for “USP24_Q9UPU5_1556_TAECETSEADNILLAGHLR (UniProt Q9UPU5)”, the “probe-labelled cysteine peptide fold change” value reads like this: (10 µM) 0.29; (50 µM) 0.0489.

As to “UBXN7_O94888_478_KLSHLDYDITLQEAGLCPQETVFVQER (UniProt O94888)”, the “probe-labelled cysteine peptide fold change” value by setting is: (10 µM) -0.259; (50 µM) -0.225.

Regarding “UGDH_O60701_20_ICCIGAGYVGGPTCSVIAHMCPEIR (UniProt O60701)”, the “probe-labelled cysteine peptide fold change” value amounted to 0.139 (10 µM) and 0.121 (50 µM).

On to “URB2_Q14146_478_LFEEVLGVICRPAAEALR (UniProt Q14146)”, for which the “probe-labelled cysteine peptide fold change” value is, setting by setting: (10 µM) 0.102; (50 µM) 0.101.

In the case of “UROD_P06132_308_TVTLQGNLDPCALYASEEEIGQLVK (UniProt P06132)”, the “probe-labelled cysteine peptide fold change” value is -0.161 (10 µM) and -0.112 (50 µM).

In the case of “UPF2_Q9HAU5_578_LIVDAFLQQLPNCVNR (UniProt Q9HAU5)”, the “probe-labelled cysteine peptide fold change” value (10 µM) was -0.0302 and the “probe-labelled cysteine peptide fold change” value (50 µM) was -0.0787.

As to “USP34_Q70CQ2_111_HCTTINIDSTWQDESNQAEEPLNIDRECNEGSTER (UniProt Q70CQ2)”, the “probe-labelled cysteine peptide fold change” value (10 µM) was -0.166 and the “probe-labelled cysteine peptide fold change” value (50 µM) was -0.0113.

On to “UCK2_Q9BZX2_197_PAFEEFCLPTK (UniProt Q9BZX2)”, for which the “probe-labelled cysteine peptide fold change” value reads like this: (10 µM) 0.0086; (50 µM) 0.119.

“UQCRH_P07919_67_SHTEEDCTEELFDFLHAR (UniProt P07919)”: the “probe-labelled cysteine peptide fold change” value runs as follows: (10 µM) -0.357; (50 µM) -0.434.

Regarding “UNC13D_Q70J99_992_DLHPLFDETFEFLVPAEPCR (UniProt Q70J99)”, the “probe-labelled cysteine peptide fold change” value was -0.0665 (10 µM) and -0.157 (50 µM).

With “USP19_O94966_1138_FCIGQK (UniProt O94966)”, the “probe-labelled cysteine peptide fold change” value by setting is: (10 µM) 0.0278; (50 µM) 0.0561.

Regarding “UBXN6_Q9BZV1_210_INCLEGTHEFFEAIGFQK (UniProt Q9BZV1)”, the “probe-labelled cysteine peptide fold change” value by setting is: (10 µM) 0.0136; (50 µM) 0.00194.

“USP47_Q96K76_314_CLECGYEGWR (UniProt Q96K76)”: the “probe-labelled cysteine peptide fold change” value reads like this: (10 µM) 0.102; (50 µM) 0.285.

Regarding “USP24_Q9UPU5_802_TFFENVNLCDHR (UniProt Q9UPU5)”, the “probe-labelled cysteine peptide fold change” value was -0.00633 (10 µM) and -0.099 (50 µM).

As to “UCKL1_Q9NWZ5_35_SETACEDR (UniProt Q9NWZ5)”, the “probe-labelled cysteine peptide fold change” value is 0.063 (10 µM) and -0.117 (50 µM).

Turning to “UNK_Q9C0B0_272_CENGDACQYCHTR (UniProt Q9C0B0)”, the “probe-labelled cysteine peptide fold change” value is, setting by setting: (10 µM) 0.124; (50 µM) -0.131.

For the target “UGGT1_Q9NYU2_1386_DFNLDGAPYGYTPFCDSRR (UniProt Q9NYU2)”, the “probe-labelled cysteine peptide fold change” value runs as follows: (10 µM) -0.267; (50 µM) 0.0181.

On to “UPF3B_Q9BZI7_453_LCPPDDSTK (UniProt Q9BZI7)”, for which the “probe-labelled cysteine peptide fold change” value runs as follows: (10 µM) -0.062; (50 µM) 0.0417.

For the target “UCHL5_Q9Y5K5_9_MTGNAGEWCLMESDPGVFTELIK (UniProt Q9Y5K5)”, the “probe-labelled cysteine peptide fold change” value runs as follows: (10 µM) -0.138; (50 µM) -0.157.

As for “UHRF1BP1L_A0JNW5_592_SECHQDQPR (UniProt A0JNW5)”, the “probe-labelled cysteine peptide fold change” value was 0.265 (10 µM) and -0.193 (50 µM).

Take “UHRF1_Q96T88_497_TAEQSCDQK (UniProt Q96T88)”: the “probe-labelled cysteine peptide fold change” value is, setting by setting: (10 µM) 0.0456; (50 µM) -0.184.

On to “UBXN7_O94888_38_HMLEACNNNLEMAVTMFLDGGGIAEEPSTSSASVSTVRPHTEEEVRAPIPQK (UniProt O94888)”, for which the “probe-labelled cysteine peptide fold change” value is -0.0254 (10 µM) and -0.299 (50 µM).

“UPF1_Q92900_675_QLILVGDHCQLGPVVMCK (UniProt Q92900)”: the “probe-labelled cysteine peptide fold change” value runs as follows: (10 µM) -0.156; (50 µM) 0.0263.

In the case of “UBR7_Q8N806_374_VQQVELICEYNDLK (UniProt Q8N806)”, the “probe-labelled cysteine peptide fold change” value runs as follows: (10 µM) -0.0738; (50 µM) 0.0769.

Turning to “UPF1_Q92900_133_DLPIHACSYCGIHDPACVVYCNTSK (UniProt Q92900)”, the “probe-labelled cysteine peptide fold change” value is, setting by setting: (10 µM) 0.0303; (50 µM) 0.224.

“USP4_Q13107_500_VMEVFLVPADPHCRPTQYR (UniProt Q13107)”: the “probe-labelled cysteine peptide fold change” value by setting is: (10 µM) -0.0635; (50 µM) 0.0146.

Regarding “UPF1_Q92900_531_QGNGPVLVCAPSNIAVDQLTEK (UniProt Q92900)”, the “probe-labelled cysteine peptide fold change” value is, setting by setting: (10 µM) 0.285; (50 µM) 0.158.

“USP15_Q9Y4E8_633+634_ISTETEETEGSLHCCK (UniProt Q9Y4E8)”: the “probe-labelled cysteine peptide fold change” value (10 µM) worked out at 0.0333 and the “probe-labelled cysteine peptide fold change” value (50 µM) is -0.399.

Regarding “UPF2_Q9HAU5_315_HCGDDIAGLVPR (UniProt Q9HAU5)”, the “probe-labelled cysteine peptide fold change” value runs as follows: (10 µM) -0.00461; (50 µM) 0.00542.

Regarding “UCK2_Q9BZX2_241_RQTNGCLNGYTPSR (UniProt Q9BZX2)”, the “probe-labelled cysteine peptide fold change” value by setting is: (10 µM) -0.0274; (50 µM) -0.121.

As to “UNG_P13051_166_VVILGQDPYHGPNQAHGLCFSVQRPVPPPPSLENIYK (UniProt P13051)”, the “probe-labelled cysteine peptide fold change” value is -0.142 (10 µM) and -0.26 (50 µM).

These data come from the supplement of paper PMC12067093, “Discovery and optimisation of a covalent ligand for TRIM25 and its application to targeted protein ubiquitination” (Chemical Science, 2025).
